Results from PubChem BioAssay AID602313 (National Center for Advancing Translational Sciences (NCATS), 2012).
In all, about 390,000 compounds went through this assay and about 760 (0.19%) were called active. Inconclusive means that the source gave no clear call. Such entries were picked first, then a sample of the others. Calls come from the whole dose curve; as a rule, active = well fitted inhibition curve with a large enough effect; inconclusive = small, poorly fitted or top-dose-only effect; inactive = flat fitted curve, though single readings scatter. Potencies of inconclusive entries are doubtful fits and often do not repeat.

Assay: qHTS for Inhibitors of Vif-A3F Interactions: qHTS; note: nearly all actives have a fitted effect of over 65% in size
Conditions: HeLa A3F-eYFP + Vif (tagged APOBEC3F with the HIV-1 protein that degrades it), YFP fluorescence increase; series mostly up to 46.1 µM
Method in brief: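 Fluorescence increase (Ex 488/Em 500-530) after overnight compound treatment at 37 deg C flags inhibition of Vif-driven A3F-eYFP loss in stable HeLa A3F-eYFP/Vif cells seeded overnight beforehand.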
Potency is the fitted concentration of half-maximal effect.

| SMILES | Potency |
| --- | --- |
| Cc1ccc(NS(=O)(=O)c2ccc(NC(=O)C(C)Sc3ccc(Cl)cc3)cc2)c(C)c1 (stereo unspecified) | inconclusive: 35.5 µM [inhibitor, single point] |
| CCc1ccc(OCC2c3cc(OC)c(OC)cc3CCN2C(=O)Cc2ccc(OC)c(OC)c2)cc1 (stereo unspecified) | inactive |
| Cc1cccc(C)c1N/C=C/c1onc(C)c1[N+](=O)[O-] | inconclusive: 11.2 µM [inhibitor, partial curve] |
| CSc1ccccc1NC(=O)COc1ccc(Cl)cc1Cl | inconclusive: 22.4 µM [inhibitor, partial curve, poor fit] |
| Cc1ccc(-c2ccc(/C=C3/NC(=O)NC3=O)o2)cc1[N+](=O)[O-] | inactive |
| COc1ccccc1NC(=O)Cn1c(SCC(=O)NCc2ccccc2)nc2ccccc21 | inactive |
| CCOC(=O)C1=C(CNCc2ccccc2)NC(=O)NC1c1ccc(C)cc1 (stereo unspecified) | inactive |
| Cc1cc(O)cc(=O)n1CCc1ccccc1 | inconclusive: 3.55 µM [inhibitor, partial curve, poor fit] |
| COc1ccc(S(N)(=O)=O)cc1C(=O)OCC(=O)Nc1sccc1C#N | inconclusive: 25.1 µM [inhibitor, single point] |
| Cc1cc(N2CCN(C)CC2)nc2ccc(NC(=O)Nc3ccccc3Cl)cc12 | inactive |
| O=C(/C=C/c1ccco1)N(Cc1cccc(Cl)c1)C1CCS(=O)(=O)C1 (stereo unspecified) | inactive |
| CC(C)(C)c1ccc(/C=N/OCC(=O)NCc2ccc(F)cc2)cc1 | inconclusive: 35.5 µM [inhibitor, single point] |
| COC(=O)c1sc2cc([N+](=O)[O-])cc(SCC(C)C)c2c1N | active: 10 µM |
| Cc1cccc(NC(=O)/C=C/c2ccc([N+](=O)[O-])s2)c1 | active: 7.08 µM |
| N=C1SCC(=O)N1c1ncc(Cc2ccc(F)cc2)s1 | inconclusive: 3.16 µM [inhibitor, single point] |
| NC(=O)NN=C1CC2CC1C1C=CCC21 (stereo unspecified) | inconclusive: 22.4 µM [inhibitor, single point] |
| CC1(C)CC(=O)C(C(c2cc([N+](=O)[O-])ccc2Cl)C2C(=O)CC(C)(C)CC2=O)C(=O)C1 | inactive |
| O=C(CSc1ccccc1)Nc1ccncc1 | inactive |
| CCCn1c(=N)n(CC(=O)c2ccc([N+](=O)[O-])cc2)c2ccccc21 | inconclusive: 11.2 µM [inhibitor, partial curve, poor fit] |
| Cc1ccc(/C=C/C(=O)c2ccc([N+](=O)[O-])o2)cc1 | inactive |
| O=C(NNC(=S)NCc1ccccc1)c1ccc(Br)o1 | inconclusive: 3.16 µM [inhibitor, partial curve, poor fit] |
| Cc1nnc(N2CCC(C(=O)NCc3cccc(Cl)c3)CC2)c2nn(-c3ccccc3)c(C)c12 | inconclusive: 31.6 µM [inhibitor, single point] |
| O=[N+]([O-])/C=C\c1ccc(N2CCOCC2)cc1 | inactive |

3 structures from above, arranged by heavy-atom count, smallest number first:

| SMILES | Potency |
| --- | --- |
| Cc1cccc(C)c1N/C=C/c1onc(C)c1[N+](=O)[O-] | inconclusive: 11.2 µM [inhibitor, partial curve] |
| Cc1ccc(-c2ccc(/C=C3/NC(=O)NC3=O)o2)cc1[N+](=O)[O-] | inactive |
| Cc1nnc(N2CCC(C(=O)NCc3cccc(Cl)c3)CC2)c2nn(-c3ccccc3)c(C)c12 | inconclusive: 31.6 µM [inhibitor, single point] |

(next part)

| SMILES | Potency |
| --- | --- |
| O=C(CSc1nnc(SCc2ccccc2)s1)N/N=C/C=C\c1ccco1 | inactive |
| COc1ccc(CCNC(=S)Nc2ccc(C(C)C)cc2)cc1 | inactive |
| O=C(C1CCCCC1)N1C[C@H](n2cc(-c3ccc(F)cc3)nn2)[C@@H](O)C[C@@H]1c1ccc(Cl)cc1 | inactive |
| Clc1ccc(C(c2cccs2)N2CCNCC2)cc1 (stereo unspecified) | inactive |
| O=C(Nc1ccc(O)c(-c2nc3ccccc3s2)c1)c1cc(=O)c2ccccc2o1 | inconclusive: 5.01 µM [inhibitor, single point] |
| COc1cc(OC)c(NC(=O)C(C)n2nc(-c3ccc(C)c(C)c3)ccc2=O)cc1Cl (stereo unspecified) | inactive |
| Cc1cc(C)c(C#N)c(SCC(=O)c2cccs2)n1 | inconclusive: 25.1 µM [inhibitor, single point] |
| CCOc1ccc2[nH]c(=O)c(CN(CCN3CCCC3)C(=S)Nc3ccccc3OCC)cc2c1 | inconclusive: 35.5 µM [inhibitor, single point] |
| Oc1[nH]c2ccccc2c1N=Nc1cccc(Cl)c1 | inconclusive: 35.5 µM [inhibitor, single point] |
| O=C(NCc1cccs1)c1cc(-c2ccccn2)nc2ccc(Br)cc12 | inconclusive: 20 µM [inhibitor, single point] |
| COc1ccccc1N1C(=O)C2C(C(=O)c3ccccc3)=NN(c3ccc(Br)cc3)C2C1=O (stereo unspecified) | inconclusive: 25.1 µM [inhibitor, single point] |
| O=C(c1ccc(Cl)c([N+](=O)[O-])c1)N(Cc1ccc(Cl)cc1)C1CCS(=O)(=O)C1 (stereo unspecified) | inactive |
| Nc1c(C(=O)Nc2ccccc2F)sc2nc(Cc3ccccc3)cc(C(F)(F)F)c12 | inconclusive: 22.4 µM [inhibitor, partial curve, poor fit] |
| Cn1c(=O)c2[nH]c(-c3ccccc3)c(O)c2n(C)c1=O | inconclusive: 12.6 µM [inhibitor, partial curve, poor fit] |
| CCNC(=S)Nc1cc(C)ccn1 | inconclusive: 35.5 µM [inhibitor, single point] |
| O=C(COc1ccc([N+](=O)[O-])cc1)Nc1cc(C(=O)O)cc(C(=O)O)c1 | inconclusive: 2.82 µM [inhibitor, full curve] |
| COc1cccc(/C=C/C(=O)OCC(=O)NCCC2=CCCCC2)c1 | inconclusive: 3.16 µM [inhibitor, single point] |
| S=c1[nH]nc(-c2ccccc2)n1/N=C/c1cccc(Cl)c1 | inconclusive: 25.1 µM [inhibitor, single point] |
| Cc1ccc(C(=O)Nc2ccccc2[N+](=O)[O-])cc1S(=O)(=O)N1CCOCC1 | inactive |
| C#CCn1c(=NC(=O)CSC(C)=O)sc2cc(F)ccc21 | inconclusive: 12.6 µM [inhibitor, partial curve, poor fit] |
| CCOC(=O)C1(CCCc2ccccc2)CCN(Cc2nccn2CC)CC1 | inconclusive: 12.6 µM [inhibitor, partial curve, poor fit] |
| CCOc1cc(C(=O)N/N=C/C(Br)=C/c2ccccc2)cc(OCC)c1OCC | inconclusive: 20 µM [inhibitor, single point] |
| Cc1cccc(N2CCN(S(=O)(=O)c3ccc4c(c3)OCCO4)CC2)c1C | inactive |
